The test concerns the target T1, human TL1A C95S/C135S double mutant (human) (UniProt O95150).
T1 sequence: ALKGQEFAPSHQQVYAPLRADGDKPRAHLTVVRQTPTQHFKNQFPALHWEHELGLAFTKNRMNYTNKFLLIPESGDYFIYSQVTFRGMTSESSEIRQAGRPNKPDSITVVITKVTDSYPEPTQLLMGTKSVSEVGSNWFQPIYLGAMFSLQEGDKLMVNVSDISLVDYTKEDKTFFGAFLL
Kind of test: co-crystal.

These are yes or no findings as the source states them, for the method shown. Some results given as binding are weak or reduced against the parent protein; the word gives no strength.

The values below come from patent publication US20260210971A1.

B1: DR3 in the TL1A:DR3 crystal complex (receptor, UniProt Q93038 25-199, looked up)
chain: QGGTRSPRCDCAGDFHKKIGLFCCRGCPAGHYLKAPCTEPCGNSTCLVCPQDTFLAWENHHNSECARCQACDEQASQVALENCSAVADTRCGCKPGWFVECQVSQCVSSSPFYCQPCLDCGALHRHTRLLCSRRDTDCGTCLPGFYEHGDGCVSCPTSTLGSCPERCAAVCGWRQ
Consider B1, for which the binding entry was “binds”.
